{"sequences": {"note": "Chains of the proteins cited; added tags and fusions are not shown.", "UniProt P18054, whole entry, looked up": "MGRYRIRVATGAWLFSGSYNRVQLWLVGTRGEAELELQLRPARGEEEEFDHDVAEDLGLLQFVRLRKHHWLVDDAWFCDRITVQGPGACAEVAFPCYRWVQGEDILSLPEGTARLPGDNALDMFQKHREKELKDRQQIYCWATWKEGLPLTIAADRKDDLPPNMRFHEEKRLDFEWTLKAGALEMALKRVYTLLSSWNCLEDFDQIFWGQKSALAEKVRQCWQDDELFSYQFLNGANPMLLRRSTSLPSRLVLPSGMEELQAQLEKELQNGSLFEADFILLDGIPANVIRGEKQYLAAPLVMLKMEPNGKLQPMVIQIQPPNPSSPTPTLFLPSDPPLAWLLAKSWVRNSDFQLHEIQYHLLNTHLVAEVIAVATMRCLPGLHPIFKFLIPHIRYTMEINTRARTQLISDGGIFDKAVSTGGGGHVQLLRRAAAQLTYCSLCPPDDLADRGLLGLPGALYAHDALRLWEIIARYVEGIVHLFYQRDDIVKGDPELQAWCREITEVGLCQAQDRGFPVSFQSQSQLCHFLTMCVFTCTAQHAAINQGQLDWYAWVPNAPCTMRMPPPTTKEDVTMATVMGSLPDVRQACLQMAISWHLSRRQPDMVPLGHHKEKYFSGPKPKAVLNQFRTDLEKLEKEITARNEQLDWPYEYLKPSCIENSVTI"}, "source": "PubChem BioAssay AID1671190", "about": "(National Center for Advancing Translational Sciences (NCATS), 2021)", "note": "Out of some 580,000 compounds screened, about 6,100 (1.1%) were called active. The shares of active, inactive and inconclusive entries below differ from those in the screen. Calls follow the shape of the dose curve; as a rule, active = well fitted inhibition curve with a large enough effect; inconclusive = small, poorly fitted or top-dose-only effect, or another doubt; inactive = no such curve, though single readings can be large or run the other way. A potency beside an inconclusive call is a rough fit, not a confirmed value. Potency is read from the fitted curve at half-maximal effect."}
{"target": "Polyunsaturated fatty acid lipoxygenase ALOX12 (Homo sapiens) (UniProt P18054)", "test": "Primary qHTS assay for inhibitors of human arachidonate 12S-lipoxygenase (ALOX12): Round 2", "conditions": "purified 12hLO, xylenol orange hydroperoxide absorbance; series mostly up to 108 µM", "method_in_brief": "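Hydroperoxide product was detected by ferrous iron/xylenol orange as the 573 to 405 nm absorbance ratio. Arachidonic acid at 40 uM (final) was turned over for 30 min at room temperature by 150 nM human 12hLO, pH 7.0 Hepes buffer, after 15 min compound preincubation.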"}
{"smiles": "CCC(C)c1ccc(NC(=S)Nc2ccc(N(CC)CC)cc2)cc1", "note": "(stereo unspecified)", "Potency": "inconclusive: 31.6 µM [inhibitor, partial curve, poor fit]"}
{"smiles": "CCN(CC)C(=O)c1ccc2c(c1)N(Cc1ccccc1)C(=O)CS2=O", "note": "(stereo unspecified)", "Potency": "inconclusive: 39.8 µM [inhibitor, single point]"}
{"smiles": "Cc1c(CC(=O)NCc2ccc(F)cc2)c(=O)oc2c(C)c(O)ccc12", "Potency": "inactive"}
{"smiles": "COc1ccccc1OCc1ccc(C(=O)NC(C)(C)C)o1", "Potency": "inconclusive: 79.4 µM [inhibitor, single point]"}
{"smiles": "C/C=C/Cn1c(SCc2ccc(C)cc2)nc2c1c(=O)[nH]c(=O)n2C", "Potency": "inconclusive: 12.6 µM [inhibitor, partial curve, poor fit]"}
{"smiles": "COc1ccccc1N1CCN(C(=O)c2nc(SC)ncc2Cl)CC1", "Potency": "inactive"}
{"smiles": "CCOC(=O)C(C(=O)N(C)C)c1ncc(C(F)(F)F)cc1Cl", "note": "(stereo unspecified)", "Potency": "inactive"}
{"smiles": "COc1ccc(C)cc1NC(=O)CCS(=O)(=O)c1cc2c3c(c1)CCN3C(=O)CC2", "Potency": "active: 17.8 µM"}
{"smiles": "CNC(=O)C1(N2CCC[C@H]2C(=O)N2CCC(C)CC2)CCCCC1", "Potency": "inconclusive: 11.2 µM [inhibitor, partial curve]"}
{"smiles": "CC(NC(=O)c1nn(C)c(=O)c2ccccc12)c1ccc(Br)cc1", "note": "(stereo unspecified)", "Potency": "inconclusive: 126 µM [inhibitor, partial curve, poor fit]"}
{"smiles": "CCNc1ccc(Br)cc(C(=O)/C=C/c2ccccc2Cl)c1=O", "Potency": "active: 8.91 µM"}
{"smiles": "C/C(=N/Nc1cccc(Cl)c1)c1ccccc1Br", "Potency": "inactive"}
{"smiles": "N#Cc1ccc(OCCOC(=O)c2c(F)cccc2F)cc1", "Potency": "inconclusive: 50.1 µM [inhibitor, partial curve, poor fit]"}
{"smiles": "CC(=O)Nc1cccc(-c2csc(Nc3ccccc3)n2)c1", "Potency": "inconclusive: 100 µM [inhibitor, single point]"}
{"smiles": "Cc1cc(C)nc(NCC(O)CNc2ccccc2C)n1", "note": "(stereo unspecified)", "Potency": "inactive"}
{"smiles": "CCOc1ccc(Oc2nc(NCC(C)C)nc(N3CCOCC3)n2)nn1", "Potency": "inconclusive: 158 µM [inhibitor, single point]"}
{"smiles": "O=C(NNS(=O)(=O)c1ccccc1[N+](=O)[O-])c1cccc(Cl)c1", "Potency": "inactive"}
{"smiles": "COc1cccc(-n2cnnc2SCC(=O)NC(C)c2cccc3ccccc23)c1", "note": "(stereo unspecified)", "Potency": "inactive"}
{"smiles": "NC1=C(Br)C(=O)c2ncccc2C1=O", "Potency": "inconclusive: 44.7 µM [inhibitor, partial curve, poor fit]"}
{"smiles": "CCCCC(=O)Nc1cccc(NC(=O)c2ccc3c(c2)OCO3)c1", "Potency": "inconclusive: 126 µM [inhibitor, partial curve, poor fit]"}
{"smiles": "Cc1cc(Cl)ccc1OCc1nc(-c2ccc(-n3cccc3)cc2)no1", "Potency": "inactive"}
{"smiles": "COc1cccc(NC(=S)N2CCCC2c2ccc(OC)c(OC)c2)c1", "note": "(stereo unspecified)", "Potency": "inactive"}
{"smiles": "CC(C)C[C@@]12C(=O)N(c3ccc(Br)cc3)C(=O)N1[C@H](c1ccc(Br)cc1)[C@@H]1C(=O)N(C(C)(C)C)C(=O)[C@@H]12", "Potency": "inconclusive: 44.7 µM [inhibitor, partial curve, poor fit]"}
{"smiles": "COc1ccc(NC(=O)/C(Cl)=C(/Cl)S(=O)(=O)Cc2ccccc2)cn1", "Potency": "inconclusive: 44.7 µM [inhibitor, single point]"}
{"smiles": "CCN1CCN(c2ccc(S(=O)(=O)N3CCOCC3)cc2NC(=O)/C=C/c2cccc(OC)c2OC)CC1", "Potency": "inconclusive: 63.1 µM [inhibitor, partial curve, poor fit]"}
{"smiles": "CC1(C)C2CCC(C2)C1C/C=N/NC(N)=S", "note": "(stereo unspecified)", "Potency": "inconclusive: 0.447 µM [inhibitor, full curve, poor fit]"}
{"smiles": "COc1ccc(-n2c(=O)c(-c3cc(F)cc(F)c3)nc3cnc(N4CCOCC4)nc32)cc1", "Potency": "inconclusive: 89.1 µM [inhibitor, single point]"}
{"smiles": "CN(CCCS(=O)(=O)[O-])c1ccc(/C=C/c2ccc3ccccc3[n+]2C)cc1", "Potency": "inconclusive: 35.5 µM [inhibitor, partial curve, poor fit]"}
{"smiles": "CCc1nc2c(c(-c3ccc(Cl)cc3)n1)CN(C(=O)c1ccc(C(F)(F)F)cc1)CC2", "Potency": "inconclusive: 31.6 µM [inhibitor, full curve]"}
{"smiles": "N#CC1=C(N)C2=CCCC[C@H]2[C@H](c2cccc(F)c2)C1(C#N)C#N", "Potency": "inconclusive: 56.2 µM [inhibitor, partial curve, poor fit]"}
{"smiles": "O=C(NCc1ccc(F)cc1)c1cc(C2CC2)nc2onc(C3CCNCC3)c12", "Potency": "inconclusive: 8.91 µM [inhibitor, full curve, poor fit]"}
{"smiles": "CC(=O)CC1c2ccccc2C=C(c2ccsc2)N1c1ccc(-c2cccs2)cc1", "note": "(stereo unspecified)", "Potency": "inconclusive: 126 µM [inhibitor, single point]"}
{"smiles": "COc1ccc(C2CC(c3cccs3)=NN2c2ccc(C=O)cc2)cc1", "note": "(stereo unspecified)", "Potency": "inconclusive: 3.98 µM [inhibitor, full curve]"}
{"smiles": "O=S(=O)(c1cccs1)N1CCN(c2ccc(O)cc2)CC1", "Potency": "inconclusive: 31.6 µM [inhibitor, single point]"}
{"smiles": "O=C(c1cn(Cc2ccccc2)nc1-c1cccnc1)N1CCN(Cc2ccccc2)CC1", "Potency": "inconclusive: 126 µM [inhibitor, single point]"}
{"smiles": "Cn1c(NC(=O)c2ccc(Br)cc2)cc(=O)n(C)c1=O", "Potency": "inconclusive: 70.8 µM [inhibitor, partial curve, poor fit]"}
{"smiles": "O=C(NCc1ccc(C(=O)N2CCCC2)cc1)C1CCCCC1", "Potency": "inconclusive: 50.1 µM [inhibitor, partial curve, poor fit]"}
{"smiles": "Cc1c(Cl)cccc1NC(=S)Nc1ccc2[nH]c(=O)[nH]c2c1", "Potency": "inconclusive: 50.1 µM [inhibitor, partial curve, poor fit]"}
{"smiles": "CC(C)c1ccc(S(=O)(=O)Nc2ccc3c(c2)OCO3)cc1", "Potency": "inconclusive: 100 µM [inhibitor, single point]"}
{"smiles": "Cc1ccc(CN2CCC(CNC(=O)Nc3ccc(Cl)cc3)C2)cc1", "note": "(stereo unspecified)", "Potency": "inconclusive: 89.1 µM [inhibitor, partial curve, poor fit]"}
{"smiles": "CC(C)(C)S(=O)N1Cc2cc(C(=O)N3CCc4ccccc4C3)nc(-c3cccc(-c4ccncc4)c3)c2[C@H]1CCO", "note": "(stereo partly specified)", "Potency": "inconclusive: 7.08 µM [inhibitor, full curve]"}
